Reference: article PMC10067258
Results are given in words; binding and its absence hold for the method and conditions named. Binding seen in cells or lysates may run through a third protein. Some results given as binding are weak or reduced against the parent protein; the word gives no strength.

The chains behind the UniProt entries cited, without tags or fusion partners.
UniProt Q9HC97: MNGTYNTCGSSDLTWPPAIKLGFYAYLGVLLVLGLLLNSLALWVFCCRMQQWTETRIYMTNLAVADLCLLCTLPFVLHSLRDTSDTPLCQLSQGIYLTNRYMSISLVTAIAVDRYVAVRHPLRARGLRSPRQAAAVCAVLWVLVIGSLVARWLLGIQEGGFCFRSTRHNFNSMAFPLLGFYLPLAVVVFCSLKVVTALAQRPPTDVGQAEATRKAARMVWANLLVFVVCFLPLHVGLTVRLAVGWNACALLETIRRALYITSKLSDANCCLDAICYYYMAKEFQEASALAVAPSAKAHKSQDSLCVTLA

Target: T1, Neuroglobin (UniProt Q9NPG2)
T1 sequence: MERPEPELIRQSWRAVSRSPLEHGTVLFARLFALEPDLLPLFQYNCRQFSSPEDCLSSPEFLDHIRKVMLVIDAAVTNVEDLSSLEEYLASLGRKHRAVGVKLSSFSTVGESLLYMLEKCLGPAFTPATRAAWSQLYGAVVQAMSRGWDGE
Assay: co-IP; immunoprecipitation with anti-NGB antibodies, MAg25K/Protein A/G beads; cells not given; procedure as in ref. 31

binding: binds
Substance: GPR35 (from UniProt Q9HC97 1-309) (receptor)
